Among the data in publication PMC7397856 are binding values, retold here.

By UniProt entry, the sequences of proteins in these tests, tags left out. Where a name states a change or a piece, a line headed by the entry shows the natural chain unless it says otherwise.
UniProt Q9NZ71: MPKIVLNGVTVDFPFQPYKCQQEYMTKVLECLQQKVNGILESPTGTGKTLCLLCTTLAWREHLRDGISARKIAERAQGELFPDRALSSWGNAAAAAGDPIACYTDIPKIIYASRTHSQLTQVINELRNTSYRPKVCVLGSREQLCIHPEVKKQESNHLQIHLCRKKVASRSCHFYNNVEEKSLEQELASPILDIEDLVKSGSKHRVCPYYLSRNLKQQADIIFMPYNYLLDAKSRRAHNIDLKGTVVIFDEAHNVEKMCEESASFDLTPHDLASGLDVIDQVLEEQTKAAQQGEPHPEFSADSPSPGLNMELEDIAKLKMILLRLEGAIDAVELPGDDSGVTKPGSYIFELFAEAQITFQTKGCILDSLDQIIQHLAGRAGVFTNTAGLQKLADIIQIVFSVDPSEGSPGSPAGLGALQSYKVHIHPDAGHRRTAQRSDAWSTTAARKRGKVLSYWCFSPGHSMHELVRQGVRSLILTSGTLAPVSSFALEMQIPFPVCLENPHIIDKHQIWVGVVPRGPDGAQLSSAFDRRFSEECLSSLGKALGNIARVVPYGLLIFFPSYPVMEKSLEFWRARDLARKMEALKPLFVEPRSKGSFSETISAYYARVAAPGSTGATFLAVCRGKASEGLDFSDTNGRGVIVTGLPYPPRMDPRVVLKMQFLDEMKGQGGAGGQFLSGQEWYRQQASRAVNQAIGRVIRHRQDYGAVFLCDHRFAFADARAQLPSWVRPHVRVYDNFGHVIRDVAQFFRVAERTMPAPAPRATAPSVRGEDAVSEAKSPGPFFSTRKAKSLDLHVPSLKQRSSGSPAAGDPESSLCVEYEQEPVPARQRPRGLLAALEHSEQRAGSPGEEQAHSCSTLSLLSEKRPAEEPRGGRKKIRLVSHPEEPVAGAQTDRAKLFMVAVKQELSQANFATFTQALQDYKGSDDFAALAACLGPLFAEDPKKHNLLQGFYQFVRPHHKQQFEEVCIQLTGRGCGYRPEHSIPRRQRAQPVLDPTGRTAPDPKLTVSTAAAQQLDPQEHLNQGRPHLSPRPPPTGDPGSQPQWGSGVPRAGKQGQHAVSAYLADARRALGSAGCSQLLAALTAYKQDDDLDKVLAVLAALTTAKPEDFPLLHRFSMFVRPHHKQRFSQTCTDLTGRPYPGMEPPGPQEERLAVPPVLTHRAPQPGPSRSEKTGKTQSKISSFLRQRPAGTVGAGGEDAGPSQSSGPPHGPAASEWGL

This assay has as its target Flag-RTEL1 (full-length) (human) (UniProt Q9NZ71). The assay is described as follows: affinity purification with mass spectrometry; Flag-RTEL1 expressing HeLa cells; whole cell lysates treated with a cocktail of DNases and RNases; Flag immunopurified, eluted with Flag peptides, resolved by PAGE, silver-stained bands cut and analysed by LC-MS; control Flag-CHFR.

No constants are given. Whether binding was seen depends on the method and setting. In cells and extracts the contact can be indirect. A yes stands for co-enrichment or nearness to the bait. Other partners may have been found.

B1: endogenous Poldip3 (protein, UniProt Q9BY77 1-421)
chain: MADISLDELIRKRGAAAKGRLNARPGVGGVRSRVGIQQGLLSQSTRTATFQQRFDARQKIGLSDARLKLGVKDAREKLLQKDARFRIKGKVQDAREMLNSRKQQTTVPQKPRQVADAREKISLKRSSPAAFINPPIGTVTPALKLTKTIQVPQQKAMAPLHPHPAGMRINVVNNHQAKQNLYDLDEDDDGIASVPTKQMKFAASGGFLHHMAGLSSSKLSMSKALPLTKVVQNDAYTAPALPSSIRTKALTNMSRTLVNKEEPPKELPAAEPVLSPLEGTKMTVNNLHPRVTEEDIVELFCVCGALKRARLVHPGVAEVVFVKKDDAITAYKKYNNRCLDGQPMKCNLHMNGNVITSDQPILLRLSDSPSMKKESELPRRVNSASSSNPPAEVDPDTILKALFKSSGASVTTQPTEFKIKL
Turning to B1, the binding result was “binds”.
